{
  "source": "patent US20110184057A1",
  "about": "“PARENTERAL TREATMENT WITH STATINS” (priority 2008, published 2011)",
  "origin": "cited, not measured here",
  "tested_on": "osteoblast",
  "details": "BMP independent manner; cited from earlier work",
  "note": "At least one structure is not confirmed: it was looked up by name or label, or the drawing left a doubt.",
  "data": [
    {"smiles": "CCC(C)(C)C(=O)O[C@H]1C[C@@H](C)C=C2C=C[C@H](C)[C@H](CC[C@@H]3C[C@@H](O)CC(=O)O3)[C@H]21", "note": "[simvastatin]", "values": [
      {"measurement": "osteoblast calcification", "value": "induce osteoblast calcification"}
    ]}
  ]
}
